Source: EP0297435A2, “Aminopropanol derivatives of 3-(3'-hydroxyphenyl)-1-propanone, process for their preparation and medicines containing these compounds” (Helopharm W. Petrik GmbH & Co.KG., priority 1987, dated 1989)
The amount applied is not stated for every result.

Test system: Purkinje-Fasern aus Hundeherzen
Assay: Electrophysiological studies on Purkinje fibres from dog hearts (Vmax)
Format: cell-based, Hund
Conditions: Sicherheitsfaktor = Rate Faktor von Vmax.(C20CF/C20Vmax)
Source text: Die antiarrhythmische Wirksamkeit der erfindungsgemäßen Verbindungen wurde sowohl anhand von elektrophysiologischen Studien an Purkinje-Fasern aus Hundeherzen sowie mit Hilfe von Ouabaininduzierten ventrikulären Tachykardien bei Hunden bestimmt. […]
Als zusätzliches Kriterium wurde der Vorzeitigkeitsindex (Prematurity-Faktor) bestimmt, der die erwünschte Wirksamkeit der erfindungsgemäßen Verbindungen bei vorzeitigen Extrasystolen charakterisiert.

SMILES | S.F.
CCCNCC(O)COc1cccc(CCC(=O)c2ccc(OC)cc2)c1.Cl (centres unmarked) [Beispiel 7, 1-(4-Methoxyphenyl)-3-[3′-(2-hydroxy-3-n-propylaminopropoxy)-phenyl]-1-propanon-hydrochlorid] | 2,5
CCC(C)(C)NCC(O)COc1cccc(CCC(=O)c2cc(OC)c(OC)c(OC)c2)c1.Cl (centres unmarked) [Beispiel 8, 1-(3,4,5-Trimethoxyphenyl)-3-[3′-(2-hydroxy-3-tert.-pentylaminopropoxy)-phenyl]-1-propanon-hydrochlorid] | 9,4
COc1cc(C(=O)CCc2cccc(OCC(O)CNC(C)C)c2)cc(OC)c1OC.Cl (centres unmarked) [Beispiel 9, 1-(3,4,5-Trimethoxyphenyl)-3-[3′-(2-hydroxy-3-isopropylaminopropoxy)-phenyl]-1-propanon-hydrochlorid] | 2,1
COc1cc(C(=O)CCc2cccc(OCC(O)CNC(C)(C)C)c2)cc(OC)c1OC.Cl (centres unmarked) [Beispiel 10, 1-(3,4,5-Trimethoxyphenyl)-3-[3′-(2-hydroxy-3-tert.-butylaminopropoxy)-phenyl]-1-propanon-hydrochlorid] | 2,3
CCC(C)(C)NCC(O)COc1cccc(CCC(=O)c2c(C)cc(C)cc2C)c1.Cl (centres unmarked) [Beispiel 11, 1-(2,4,6-Trimethylphenyl)-3-[3′-(2-hydroxy-3-tert.-pentylaminopropoxy)-phenyl]-1-propanon-hydrochlorid] | 3,5
Cc1cc(C)c(C(=O)CCc2cccc(OCC(O)CNC(C)(C)C)c2)c(C)c1.Cl (centres unmarked) [Beispiel 14, 1-(2,4,6-Trimethylphenyl)-3-[3′-(2-hydroxy-3-tert.-butylaminopropoxy)-phenyl]-1-propanon-hydrochlorid] | 2,5
Cc1cc(C)c(C(=O)CCc2cccc(OCC(O)CNC(C)C)c2)c(C)c1.Cc1cc(C)c(C(=O)CCc2cccc(OCC(O)CNC(C)C)c2)c(C)c1.O=C(O)C(=O)O (centres unmarked) [Beispiel 15, 1-(2,4,6-Trimethylphenyl)-3-[3′-(2-hydroxy-3-isopropylaminopropoxy)-phenyl]-1-propanon-semi-oxalat] | 7,6
Cc1cc(C)c(CC(=O)Cc2cccc(OCC(O)CNC(C)(C)C)c2)c(C)c1.Cl (centres unmarked) [Beispiel 17, 1-(2,4,6-Trimethylphenyl)-3-[3′-(2-hydroxy-3-tert.-butylaminopropoxy)-phenyl]-propanon-hydrochlorid] | 9,9
CCCNCC(O)COc1cc(CCC(=O)c2ccc(OC)c(OC)c2)ccc1OC.Cl (centres unmarked) [Beispiel 22, 1-(3,4-Dimethoxyphenyl)-3-[3′-(2-hydroxy-3-n-propylaminopropoxy)-4′-methoxyphenyl]-1-propanon-hydrochlorid] | 2,1
COc1ccc(C(=O)CCc2ccc(OC)c(OCC(O)CNC(C)C)c2)cc1OC.Cl (centres unmarked) [Beispiel 23, 1-(3,4-Dimethoxyphenyl)-3-[3′-(2-hydroxy-3-isopropylaminopropoxy)-4′-methoxyphenyl]-1-propanon-hydrochlorid] | 14,0
COc1ccc(C(=O)CCc2ccc(OC)c(OCC(O)CNC(C)(C)C)c2)cc1OC.Cl (centres unmarked) [Beispiel 25, 1-(3,4-Dimethoxyphenyl)-3-[3′-(2-hydroxy-3-tert.-butylaminopropoxy)-4′-methoxyphenyl]-1-propanon-hydrochlorid] | 3,0
CCC(C)(C)NCC(O)COc1cc(CCC(=O)c2ccc(OC)c(OC)c2)ccc1OC.Cl (centres unmarked) [Beispiel 27, 1-(3,4-Dimethoxyphenyl)-3-[3′-(2-hydroxy-3-tert.-pentylaminopropoxy)-4′-methoxyphenyl]-1-propanon-hydrochlorid] | 5,4
CCC(C)(C)NCC(O)COc1cc(CCC(=O)c2cc(OC)c(OC)c(OC)c2)ccc1OC.Cl (centres unmarked) [Beispiel 28, 1-(3,4,5-Trimethoxyphenyl)-3-[3′-(2-hydroxy-3-tert.-pentylaminopropoxy)-4′-methoxyphenyl]-1-propanon-hydrochlorid] | 5,0
COc1ccc(CCC(=O)c2cc(OC)c(OC)c(OC)c2)cc1OCC(O)CNC(C)C.Cl (centres unmarked) [Beispiel 30, 1-(3,4,5-Trimethoxyphenyl)-3-[3′-(2-hydroxy-3-isopropylaminopropoxy)-4′-methoxyphenyl]-1-propanon-hydrochlorid] | 2,3
COc1ccc(CCC(=O)c2cc(OC)c(OC)c(OC)c2)cc1OCC(O)CNC(C)(C)C.Cl (centres unmarked) [Beispiel 31, 1-(3,4,5-Trimethoxyphenyl)-3-[3′-(2-hydroxy-3-tert.-butylaminopropoxy)-4′-methoxyphenyl]-1-propanon-hydrochlorid] | 4,1
COc1ccc(CCC(=O)c2cc(OC)c(OC)c(OC)c2)cc1OCC(O)CNC1CCCCC1.Cl (centres unmarked) [Beispiel 32, 1-(3,4,5-Trimethoxyphenyl)-3-[3′-(2-hydroxy-3-cyclohexylaminopropoxy)-4′-methoxyphenyl]-1-propanon-hydrochlorid] | 10,2
COc1ccc(CCC(=O)c2ccccc2OC)cc1OCC(O)CNC(C)(C)C.Cl (centres unmarked) [Beispiel 35, 1-(2-Methoxyphenyl)-3-[3′-(2-hydroxy-3-tert.-butylaminopropoxy)-4′-methoxyphenyl]-1-propanon-hydrochlorid] | 4,0
CCC(C)(C)NCC(O)COc1cc(CCC(=O)c2ccc(C)cc2)ccc1OC.Cl (centres unmarked) [Beispiel 36, 1-(4-Methylphenyl)-3-[3′-(2-hydroxy-3-tert.-pentylaminopropoxy)-4′-methoxyphenyl]-1-propanon-hydrochlorid] | 4,0
CCCNCC(O)COc1cc(CCC(=O)c2ccc(C)cc2)ccc1OC.Cl (centres unmarked) [Beispiel 37, 1-(4-Methylphenyl)-3-[3′-(2-hydroxy-3-n-propylaminopropoxy)-4′-methoxyphenyl]-1-propanon-hydrochlorid] | 2,4
COc1ccc(CCC(=O)c2ccc(C)cc2)cc1OCC(O)CNC(C)(C)C.Cl (centres unmarked) [Beispiel 39, 1-(4-Methylphenyl)-3-[3′-(2-hydroxy-3-tert.-butylaminopropoxy)-4′-methoxyphenyl]-1-propanon-hydrochlorid] | 5,0
COc1ccc(CCC(=O)c2ccc(C)cc2)cc1OCC(O)CN1CCCCC1.Cl (centres unmarked) [Beispiel 40, 1-(4-Methylphenyl)-3-[3′-(2-hydroxy-3-piperidinopropoxy)-4′-methoxyphenyl]-1-propanon-hydrochlorid] | 5,1
CCCNCC(O)COc1cc(CCC(=O)c2c(C)cc(C)cc2C)ccc1OC.O=C(O)C(=O)O (centres unmarked) [Beispiel 44, 1-(2,4,6-Trimethylphenyl)-3-[3′-(2-hydroxy-3-n-propylaminopropoxy)-4′-methoxyphenyl]-1-propanon-oxalat] | 8,5
CCC(C)(C)NCC(O)COc1cc(CCC(=O)c2ccc3ccccc3c2)ccc1OC.Cl (centres unmarked) [Beispiel 47, 1-(2-Naphthyl)-3-[3′-(2-hydroxy-3-tert.-pentylaminopropoxy)-4′-methoxyphenyl]-1-propanon-hydrochlorid] | 3,4
CCCNCC(O)COc1cc(CCC(=O)c2ccc3ccccc3c2)ccc1OC.Cl (centres unmarked) [Beispiel 48, 1-(2-Napthyl)-3-[3′-(2-hydroxy-3-n-propylaminopropoxy)-4′-methoxyphenyl]-1-propanon-hydrochlorid] | 11,7
COc1ccc(CCC(=O)c2ccc3ccccc3c2)cc1OCC(O)CNC(C)C.Cl (centres unmarked) [Beispiel 49, 1-(2-Naphthyl)-3-[3′-(2-hydroxy-3-isopropylaminopropoxy)-4′-methoxyphenyl]-1-propanon-hydrochlorid] | 4,6
O=C(NCC1CCCCN1)c1cc(OCC(F)(F)F)ccc1OCC(F)(F)F (centres unmarked) [Flecainid, reference compound] | 1,7
